Values quoted from earlier work as cited in patent publication US11026897B2, “Composition of curcumagalactomannoside and hops extract” (Metagenics, Inc., priority 2018, dated 2021).
At least one compound was matched to its structure with a doubt left.

Test system: MC3T3, El cells

CC(C)=CCC1C(=O)C(C(=O)CC(C)C)=C(O)C(O)(CC=C(C)C)C1=O (centres unmarked) [humulone]
PGE2 synthesis (MC3T3 cells (osteoblasts), at the gene level): inhibits PGE2 synthesis
COX-2 gene transcription (following TNFalpha stimulation, Yamamoto, FEBS Letters (2000)): inhibition of COX-2 gene transcription
